From paper PMC5767004, “Inhibitors of the integrase–transportin-SR2 interaction block HIV nuclear import” (Retrovirology, 2018)
These are yes or no findings as the source states them, for the method shown. Some results given as binding are weak or reduced against the parent protein; the word gives no strength. Where a sequence is shown, tags or fusion partners need not be part of it.

By UniProt entry, the sequences of proteins in these tests, tags left out.
UniProt O75475: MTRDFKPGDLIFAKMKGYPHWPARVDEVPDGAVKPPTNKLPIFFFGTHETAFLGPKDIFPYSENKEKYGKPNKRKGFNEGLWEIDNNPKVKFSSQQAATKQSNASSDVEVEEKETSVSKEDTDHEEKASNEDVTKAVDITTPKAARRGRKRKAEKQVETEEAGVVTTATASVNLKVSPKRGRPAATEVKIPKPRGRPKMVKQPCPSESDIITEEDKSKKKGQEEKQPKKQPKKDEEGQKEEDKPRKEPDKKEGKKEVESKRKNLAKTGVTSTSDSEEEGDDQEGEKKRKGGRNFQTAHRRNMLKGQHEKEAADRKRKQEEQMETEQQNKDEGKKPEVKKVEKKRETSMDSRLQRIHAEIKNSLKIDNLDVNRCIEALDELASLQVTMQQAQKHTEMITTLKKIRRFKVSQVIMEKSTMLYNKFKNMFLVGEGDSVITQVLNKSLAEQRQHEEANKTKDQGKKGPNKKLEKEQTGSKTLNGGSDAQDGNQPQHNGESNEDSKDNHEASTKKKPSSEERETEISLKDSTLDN

Target: full-length 3xflag-tagged LEDGF/p75 (UniProt O75475)
Assay: AlphaScreen or HTRF; AlphaScreen; MBP-tagged JPO2 and 3xflag-tagged LEDGF/p75 at 5 nM each; anti-flag acceptor beads and streptavidin donor beads coated with anti-MBP antibody; both purified

- binding: binds
B1: maltose-binding protein (MBP)-tagged JPO2 (Cell division cycle-associated 7-like protein, CDCA7L) (protein, UniProt Q96GN5 1-454)
chain: MELATRYQIPKEVADIFNAPSDDEEFVGFRDDVPMETLSSEESCDSFDSLESGKQQDVRFHSKYFTEELRRIFIEDTDSETEDFAGFTQSDLNGKTNPEVMVVESDLSDDGKASLVSEEEEDEEEDKATPRRSRSRRSSIGLRVAFQFPTKKLANKPDKNSSSEQLFSSARLQNEKKTILERKKDCRQVIQREDSTSESEDDSRDESQESSDALLKRTMNIKENKAMLAQLLAELNSMPDFFPVRTPTSASRKKTVRRAFSEGQITRRMNPTRSARPPEKFALENFTVSAAKFAEEFYSFRRRKTIGGKCREYRRRHRISSFRPVEDITEEDLENVAITVRDKIYDKVLGNTCHQCRQKTIDTKTVCRNQGCCGVRGQFCGPCLRNRYGEDVRSALLDPDWVCPPCRGICNCSYCRKRDGRCATGILIHLAKFYGYDNVKEYLESLQKELVEDN
